From paper PMC6704577 come the findings set out here.

Amino acid sequences for entries named in this document (tags omitted).
UniProt O43736: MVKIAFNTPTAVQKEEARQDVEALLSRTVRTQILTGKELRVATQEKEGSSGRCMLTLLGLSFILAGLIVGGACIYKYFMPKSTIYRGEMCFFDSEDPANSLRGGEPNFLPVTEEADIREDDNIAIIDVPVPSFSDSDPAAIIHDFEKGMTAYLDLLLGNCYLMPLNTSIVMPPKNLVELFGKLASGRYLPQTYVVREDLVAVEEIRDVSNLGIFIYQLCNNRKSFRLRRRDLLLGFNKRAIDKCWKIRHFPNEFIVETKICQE

Results are given in words; binding and its absence hold for the method and conditions named. Binding seen in cells or lysates may run through a third protein. Some entries that bind do so weakly or less than the wild type.

In this test the target is Integral membrane protein 2A (ITM2A) in HEK293T cells (human (endogenous in HEK293T)) (UniProt O43736). The test can be described thus: co-IP; HEK293T cells lysed in RIPA buffer (50 mM Tris-HCl pH 7.4, 150 mM NaCl, 1% Triton X-100); ITM2A antibody overnight at 4 °C, protein A/G agarose beads; western blot for HUNK. A general note: In western blotting, separated proteins are transferred to a membrane and probed.

B1: Up-regulated Neu-associated Kinase (HUNK) in HEK293T cells (protein, UniProt P57058 1-714)
chain: MPAAAGDGLLGEPAAPGGGGGAEDAARPAAACEGSFLPAWVSGVPRERLRDFQHHKRVGNYLIGSRKLGEGSFAKVREGLHVLTGEKVAIKVIDKKRAKKDTYVTKNLRREGQIQQMIRHPNITQLLDILETENSYYLVMELCPGGNLMHKIYEKKRLEESEARRYIRQLISAVEHLHRAGVVHRDLKIENLLLDEDNNIKLIDFGLSNCAGILGYSDPFSTQCGSPAYAAPELLARKKYGPKIDVWSIGVNMYAMLTGTLPFTVEPFSLRALYQKMVDKEMNPLPTQLSTGAISFLRSLLEPDPVKRPNIQQALANRWLNENYTGKVPCNVTYPNRISLEDLSPSVVLHMTEKLGYKNSDVINTVLSNRACHILAIYFLLNKKLERYLSGKSDIQDSLCYKTRLYQIEKYRAPKESYEASLDTWTRDLEFHAVQDKKPKEQEKRGDFLHRPFSKKLDKNLPSHKQPSGSLMTQIQNTKALLKDRKASKSSFPDKDSFGCRNIFRKTSDSNCVASSSMEFIPVPPPRTPRIVKKPEPHQPGPGSTGIPHKEDPLMLDMVRSFESVDRDDHVEVLSPSHHYRILNSPVSLARRNSSERTLSPGLPSGSMSPLHTPLHPTLVSFAHEDKNSPPKEEGLCCPPPVPSNGPMQPLGSPNCVKSRGRFPMMGIGQMLRKRHQSLQPSADRPLEASLPPLQPLAPVNLAFDMADGVKTQC
Consider B1, for which the binding entry is on record as “binds”.
